# PubChem BioAssay AID1053208 | Peter MacCallum Cancer Centre – 2014
# Aim: 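Find knock-downs that sensitise mouse osteosarcoma cells to doxorubicin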 (primary screen)
# Cell system: mouse osteosarcoma cells, early-passage culture from an engineered mouse model of fibroblastic bone tumour
# Reagents: siRNA pool against mouse genes, 40 nM
# Time to read-out: about 120 h (48 h before drug, then 72 h with drug)
# Treatment: doxorubicin 100 nM for 72 h, roughly 30-40% inhibitory dose
# Measurement: 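Luminescent ATP signal taken as viability with or without 100 nM doxorubicin for 72 h; mean of two wells set against non-targeting siRNA and turned into robust z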
# Reading the numbers: viability z-score with doxorubicin and doxorubicin viability vs non-targeting: higher = more viable cells under doxorubicin; viability z-score without drug: higher = more viable cells with knock-down alone; z-score of drug to no-drug ratio: higher = less drug sensitisation by knock-down
# Hit rule: 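a pool counts as active when its viability z-score with doxorubicin is -2 or below and its z-score without drug lies between -2 and 2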
# In all, the deposit lists about 17,000 reagents; this is a part drawn at random. 788 of them (4.7%) count as active. 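Calls rest on z-score classes alone; an extra cut-off of viability at most 70% of control was not applied to them.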
Gene,combined z-score class,viability z-score with doxorubicin,viability z-score without drug,z-score of drug to no-drug ratio,doxorubicin viability vs non-targeting,Outcome
Acaa1a (GeneID 113868),no change with or without drug,1.46,1.18,0.79,1.07,inactive
A2m (GeneID 232345),no change with or without drug,-0.9,-1.85,0.45,0.86,inactive
Hunk (GeneID 26559),no change with or without drug,0.34,1.85,-0.67,0.97,inactive
Mmp21 (GeneID 214766),no change with or without drug,0.56,1.52,-0.34,0.99,inactive
Tti2 (GeneID 234138),no change with or without drug,0.79,-0.84,1.57,1.01,inactive
Gamt (GeneID 14431),no change with or without drug,1.35,0.17,1.35,1.06,inactive
Slc5a8 (GeneID 216225),no change with or without drug,0.22,1.18,-0.45,0.96,inactive
Or52m1 (GeneID 258322),no change with or without drug,-0.11,-0.84,0.56,0.93,inactive

Laid out differently: entries from further up
Gene	combined z-score class	viability z-score with doxorubicin	viability z-score without drug	z-score of drug to no-drug ratio	doxorubicin viability vs non-targeting	Outcome
Mmp21 (GeneID 214766)	no change with or without drug	0.56	1.52	-0.34	0.99	inactive
Tti2 (GeneID 234138)	no change with or without drug	0.79	-0.84	1.57	1.01	inactive

Next results follow.
Gene,combined z-score class,viability z-score with doxorubicin,viability z-score without drug,z-score of drug to no-drug ratio,doxorubicin viability vs non-targeting,Outcome
Rp1 (GeneID 19888),no change with or without drug,1.12,0.17,1.12,1.04,inactive
Axl (GeneID 26362),no change with or without drug,-0.34,-0.51,0.11,0.91,inactive
Etfa (GeneID 110842),no change with or without drug,-0.22,0.51,-0.45,0.92,inactive
Plk4 (GeneID 20873),no change with or without drug,1.12,0.17,1.12,1.04,inactive
Nop9 (GeneID 67842),no change with or without drug,-1.8,-0.51,-1.46,0.78,inactive
Kctd5 (GeneID 69259),no change with or without drug,-1.12,-0.17,-1.01,0.84,inactive
Wfdc5 (GeneID 209232),no change with or without drug,0.9,0.17,0.9,1.02,inactive
Gm5082 (GeneID 328231),no change with or without drug,-0.22,1.35,-1.01,0.92,inactive
Prkag3 (GeneID 241113),high cell count with doxorubicin only,2.81,0.84,2.36,1.19,inactive
Csta2 (GeneID 76770),no change with or without drug,0.9,0,1.01,1.02,inactive
Ugt2a1 (GeneID 94215),no change with or without drug,-1.12,1.18,-1.8,0.84,inactive
Agr3 (GeneID 403205),high cell count with doxorubicin only,2.47,1.85,1.24,1.16,inactive
